Experimental data published in the supplement of paper PMC11732987, “Enantioselective OTUD7B fragment discovery through chemoproteomics screening and high-throughput optimisation” (Communications Chemistry, 2025).
This is one part of the list. The data scatter; read single values as rough.

Amino acid sequences for entries named in this document (tags omitted). A change or cut given only in a name is not applied to a line headed by its entry.
UniProt Q6PI48: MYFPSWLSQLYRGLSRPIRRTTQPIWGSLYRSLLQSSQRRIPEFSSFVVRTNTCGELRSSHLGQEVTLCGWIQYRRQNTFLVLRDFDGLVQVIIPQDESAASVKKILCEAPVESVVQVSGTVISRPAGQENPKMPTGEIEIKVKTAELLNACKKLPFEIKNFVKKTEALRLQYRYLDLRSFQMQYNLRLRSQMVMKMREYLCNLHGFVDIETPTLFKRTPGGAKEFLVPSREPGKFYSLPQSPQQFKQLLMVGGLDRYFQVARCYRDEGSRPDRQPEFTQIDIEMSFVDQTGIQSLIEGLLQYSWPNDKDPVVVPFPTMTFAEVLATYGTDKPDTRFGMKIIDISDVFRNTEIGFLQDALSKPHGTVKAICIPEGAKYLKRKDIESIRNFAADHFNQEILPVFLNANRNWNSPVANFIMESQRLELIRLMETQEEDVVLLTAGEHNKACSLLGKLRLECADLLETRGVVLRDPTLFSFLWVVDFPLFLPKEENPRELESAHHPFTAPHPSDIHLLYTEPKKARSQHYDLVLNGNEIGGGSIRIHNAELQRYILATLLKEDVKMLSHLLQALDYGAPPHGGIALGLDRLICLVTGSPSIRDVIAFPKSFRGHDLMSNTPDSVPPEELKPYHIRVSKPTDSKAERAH

molecular target: T1, DARS2 C108 (UniProt Q6PI48); assay: log2 mean competition ratio of IA-DTB cysteine labelling (DMSO/compound) (log2 ratio); higher = stronger cysteine engagement by compound; settings: 50 µM; treatment time: 4 h; cell line lysate: HEK293T
T1 sequence (whole entry): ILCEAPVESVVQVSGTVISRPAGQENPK
Protocol: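 IA-DTB competitive cysteine chemoproteomics in HEK293T RIPA lysate. Lysates were treated with compound 29 or 30 at 50 or 200 µM for 4 h, then IA-DTB (500 µM, 1 h), trypsin-digested, NeutrAvidin-enriched and analysed by diaPASEF. Competition ratio = intensity DMSO / intensity compound (n=4 treated, n=64 DMSO); binding: mean log2 CR ≥ 1 and p ≤ 0.05 plus QC filters. Target is the cysteine site.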

| Structure (SMILES) | log2 mean competition ratio |
| --- | --- |
| O=C(CCl)N[C@@H]1CCCc2ccccc21 | -0.0321 |
| O=C(CCl)N[C@H]1CCCc2ccccc21 | -0.211 |

same assay, conditions: 200 µM; treatment time: 4 h; cell line lysate: HEK293T

| Structure (SMILES) | log2 mean competition ratio |
| --- | --- |
| O=C(CCl)N[C@@H]1CCCc2ccccc21 | -0.0875 |
| O=C(CCl)N[C@H]1CCCc2ccccc21 | -0.464 |
